# Laboratory results reported in PubChem BioAssay AID1671190 (National Center for Advancing Translational Sciences (NCATS), 2021).
# Chains of the proteins cited; added tags and fusions are not shown.
# UniProt P18054, whole entry, looked up: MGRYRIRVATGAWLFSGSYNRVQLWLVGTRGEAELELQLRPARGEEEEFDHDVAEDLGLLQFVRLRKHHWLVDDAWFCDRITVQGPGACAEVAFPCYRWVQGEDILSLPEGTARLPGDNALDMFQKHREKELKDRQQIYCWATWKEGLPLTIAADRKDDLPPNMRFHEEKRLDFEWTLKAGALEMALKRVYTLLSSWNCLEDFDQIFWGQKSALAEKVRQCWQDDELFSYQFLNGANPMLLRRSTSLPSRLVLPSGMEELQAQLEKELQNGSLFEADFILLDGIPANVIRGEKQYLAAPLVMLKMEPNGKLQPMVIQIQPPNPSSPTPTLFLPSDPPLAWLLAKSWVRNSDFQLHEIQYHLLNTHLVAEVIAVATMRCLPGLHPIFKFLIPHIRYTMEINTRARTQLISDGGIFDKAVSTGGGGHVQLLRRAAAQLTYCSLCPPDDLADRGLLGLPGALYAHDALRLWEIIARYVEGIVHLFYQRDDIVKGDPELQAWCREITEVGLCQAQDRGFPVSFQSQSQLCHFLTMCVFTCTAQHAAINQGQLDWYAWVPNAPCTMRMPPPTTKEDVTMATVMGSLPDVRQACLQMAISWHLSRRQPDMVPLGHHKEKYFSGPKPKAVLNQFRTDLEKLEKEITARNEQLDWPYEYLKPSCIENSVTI
# In all, about 580,000 compounds went through this assay and about 6,100 (1.1%) were called active. Inconclusive means that the source gave no clear call. Such entries were picked first, then a sample of the others. The call rests on the fitted dose curve; in most records, active means well fitted inhibition curve with a large enough effect; inconclusive means small, poorly fitted or top-dose-only effect, or another doubt; inactive means no such curve, though single readings can be large or run the other way. Potencies of inconclusive entries are doubtful fits and often do not repeat.
# Target: Polyunsaturated fatty acid lipoxygenase ALOX12 (Homo sapiens) (UniProt P18054)
# Test: Primary qHTS assay for inhibitors of human arachidonate 12S-lipoxygenase (ALOX12): Round 2
# Conditions: purified 12hLO, xylenol orange hydroperoxide absorbance; activity change, negative = inhibition: at 108 µM (top of the series) unless noted
# How it was run: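 Hydroperoxide product was detected by ferrous iron/xylenol orange as the 573 to 405 nm absorbance ratio. Arachidonic acid at 40 uM (final) was turned over for 30 min at room temperature by 150 nM human 12hLO, pH 7.0 Hepes buffer, after 15 min compound preincubation.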
# On the % scale 0 is the no-effect control and ±100 the full control effect; potency means the concentration at half of the fitted maximal effect.
Structure (SMILES),Potency,"activity change, negative = inhibition"
O=c1cc(-c2ccccn2)oc2c(Nc3ccccc3)nccc12,"inconclusive: 17.8 µM [inhibitor, full curve, poor fit]",
O=C(O)CCC(CNS(=O)(=O)c1ccc(Cl)s1)C(F)(F)F (stereo not drawn),,inactive: -28.1%
CC(=O)c1ccc(N(C(=O)Cn2nnc3ccccc32)C(C(=O)NC2CCCCC2)c2cn(C)nc2C)cc1 (stereo not drawn),,inactive: 1.04%
Cc1ccc(NC(=O)c2nn(-c3ccccc3)c(=O)c3ccccc23)c(O)c1,,inactive: -2.27%
CCN(CC)CCN1C(=O)C(=O)/C(=C(/O)c2ccc(OC)cc2)C1c1ccco1 (stereo not drawn),"inconclusive: 50.1 µM [inhibitor, partial curve, poor fit]",
NC(=S)Nc1cccc(F)c1,,inactive: -14.4%
COC(=O)CO[C@@H]1CO[C@H]2[C@@H]1OC[C@@H]2NC(=S)Nc1cc(C)cc(C)c1,active: 70.8 µM,
CCOc1ccc(N(CC(=O)Nc2ccc(C)c(C)c2)S(=O)(=O)c2c(C)[nH]c(=O)[nH]c2=O)cc1,"inconclusive: 141 µM [inhibitor, single point]",
CN(CC1CCOC1)S(=O)(=O)c1ccccc1F (stereo not drawn),,inactive: -1.87%
O=C(CNc1cccc(S(=O)(=O)N2CCOCC2)c1)N1CCN(C(=O)c2cccs2)CC1,,inactive: 5.72%
CCC(C(=O)OCCOCCN(CC)CC)c1ccccc1 (stereo not drawn),"inconclusive: 126 µM [inhibitor, single point]",
N/C(=N\OC(=O)N1CCOCC1)c1ccc(Cl)cc1,,inactive: -11.9%
Cc1ccc2nc(Cl)c3cc(C(=O)NC4CCCC(C)C4C)sc3c2c1 (stereo not drawn),,inactive: -4%
COc1ccc2oc(C(=O)OCC(=O)N(C)CC(=O)Nc3ccc(C)cc3)c(C)c2c1,"inconclusive: 25.1 µM [inhibitor, partial curve, poor fit]",
COc1ccc(NC(=O)/C(C#N)=C\c2ccc(Br)o2)cc1,,inactive: -22.4%
O=C(C[n+]1ccccc1)NNc1ccccc1,"inconclusive: 39.8 µM [inhibitor, partial curve, poor fit]",
O=C(Nc1ccc(OC(F)F)cc1)c1cc2ccccc2[nH]1,,inactive: 19.8%

# Quoted from the listing.
# Under Potency, CCOc1ccc(N(CC(=O)Nc2ccc(C)c(C)c2)S(=O)(=O)c2c(C)[nH]c(=O)[nH]c2=O)cc1 has the entry inconclusive: 141 µM [inhibitor, single point]
# Under activity change, negative = inhibition, N/C(=N\OC(=O)N1CCOCC1)c1ccc(Cl)cc1 has the entry inactive: -11.9%

# Following part:

Structure (SMILES),Potency,"activity change, negative = inhibition"
Cc1ccccc1-c1cc(N2CCNCC2)ncn1,"inconclusive: 5.01 µM [inhibitor, full curve, poor fit]",
Cc1cccc2sc(NNC(=O)c3ccc4c(c3)OCCO4)nc12,"inconclusive: 39.8 µM [inhibitor, partial curve, poor fit]",
COc1ccc(C2(C(=O)N3CCC(Cc4nc(-c5ccc(F)cc5)no4)CC3)CC2)cc1,"inconclusive: 39.8 µM [inhibitor, partial curve]",
COc1ccc(NC(=O)Cn2nnc3sc4c(c3c2=O)CCC(C)C4)c(OC)c1 (stereo not drawn),"inconclusive: 100 µM [inhibitor, partial curve, poor fit]",
O=S(=O)(O)c1nnc2sc3ccccc3n12,"inconclusive: 7.08 µM [inhibitor, full curve, poor fit]",
Cc1noc(C(C)N2CCN(C(=O)c3ccccn3)CC2)n1 (stereo not drawn),"inconclusive: 141 µM [inhibitor, single point]",
COc1ccc(CN(Cc2ccco2)C(=O)c2cc(=O)c3ccccc3o2)cc1,"inconclusive: 100 µM [inhibitor, single point]",
c1ccc2[nH]c(CN3CCCC3)nc2c1,"inconclusive: 3.98 µM [inhibitor, full curve, poor fit]",
Cn1cccc1/C=N/N1CCN(Cc2cccc3ccccc23)CC1,active: 17.8 µM,
C/C(=C1/SC(=S)N(CCC(=O)O)C1=O)c1ccc(O)cc1,active: 39.8 µM,
COc1ccccc1-c1nnc(SCC(=O)N(C)C2(c3ccccc3Cl)CCCCC2=O)n1C (stereo not drawn),,inactive: 12.9%
COc1ccc(Cl)cc1NS(=O)(=O)c1cn(C)nc1C,"inconclusive: 50.1 µM [inhibitor, partial curve, poor fit]",
CC(=O)NC1(C)CCN(Cc2cnc(-c3cccc(N4CCOCC4)c3)s2)CC1,"inconclusive: 100 µM [inhibitor, partial curve]",
COc1ccc(Cl)cc1NC(=O)c1sc(-n2nc(C)c(Cc3ccccc3)c2C)nc1C,,inconclusive: -36.1% [inhibitor]
CCn1c(=O)c2cc(C(=O)N(CCN(C)C)Cc3ccccc3)sc2c2ccccc21,"inconclusive: 112 µM [inhibitor, partial curve, poor fit]",
CC1CCN(S(=O)(=O)C2CCS(=O)(=O)C2)CC1 (stereo not drawn),"inconclusive: 11.2 µM [inhibitor, full curve]",
